The results in this text go back to doi:10.1101/2020.12.15.422806.

The chains behind the UniProt entries cited, without tags or fusion partners.
UniProt Q8CJG0: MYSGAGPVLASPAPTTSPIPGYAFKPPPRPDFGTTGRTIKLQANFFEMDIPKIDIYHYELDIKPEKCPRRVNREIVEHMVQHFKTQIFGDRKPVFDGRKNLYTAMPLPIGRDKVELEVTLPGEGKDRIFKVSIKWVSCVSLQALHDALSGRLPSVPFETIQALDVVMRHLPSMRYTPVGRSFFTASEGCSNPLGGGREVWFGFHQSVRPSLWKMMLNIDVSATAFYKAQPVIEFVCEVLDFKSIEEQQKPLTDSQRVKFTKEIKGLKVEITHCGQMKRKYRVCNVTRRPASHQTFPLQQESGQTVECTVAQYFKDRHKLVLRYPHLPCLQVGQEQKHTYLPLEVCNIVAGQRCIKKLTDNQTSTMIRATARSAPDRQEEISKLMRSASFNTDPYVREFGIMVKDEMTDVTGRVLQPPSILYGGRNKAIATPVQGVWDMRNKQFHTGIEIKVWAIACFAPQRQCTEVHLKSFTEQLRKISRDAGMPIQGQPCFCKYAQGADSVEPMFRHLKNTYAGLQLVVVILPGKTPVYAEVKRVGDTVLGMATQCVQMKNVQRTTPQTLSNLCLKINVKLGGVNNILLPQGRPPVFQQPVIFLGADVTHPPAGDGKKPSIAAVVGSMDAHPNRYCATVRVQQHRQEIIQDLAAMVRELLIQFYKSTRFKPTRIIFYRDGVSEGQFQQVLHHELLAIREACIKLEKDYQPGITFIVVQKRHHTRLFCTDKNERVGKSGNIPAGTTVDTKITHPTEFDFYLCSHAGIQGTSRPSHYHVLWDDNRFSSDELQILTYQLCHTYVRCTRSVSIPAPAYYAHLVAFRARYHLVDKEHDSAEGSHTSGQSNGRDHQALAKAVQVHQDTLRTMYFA
UniProt Q60899: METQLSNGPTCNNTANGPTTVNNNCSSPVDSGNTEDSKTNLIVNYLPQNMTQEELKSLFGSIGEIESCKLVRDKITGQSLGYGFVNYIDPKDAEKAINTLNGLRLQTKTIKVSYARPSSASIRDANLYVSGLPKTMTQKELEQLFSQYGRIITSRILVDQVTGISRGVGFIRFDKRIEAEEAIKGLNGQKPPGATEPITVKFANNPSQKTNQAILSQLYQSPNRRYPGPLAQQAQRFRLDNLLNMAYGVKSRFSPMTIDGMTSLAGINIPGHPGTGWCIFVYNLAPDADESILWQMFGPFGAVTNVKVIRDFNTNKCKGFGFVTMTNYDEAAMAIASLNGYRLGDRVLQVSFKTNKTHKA
UniProt Q9CQF3: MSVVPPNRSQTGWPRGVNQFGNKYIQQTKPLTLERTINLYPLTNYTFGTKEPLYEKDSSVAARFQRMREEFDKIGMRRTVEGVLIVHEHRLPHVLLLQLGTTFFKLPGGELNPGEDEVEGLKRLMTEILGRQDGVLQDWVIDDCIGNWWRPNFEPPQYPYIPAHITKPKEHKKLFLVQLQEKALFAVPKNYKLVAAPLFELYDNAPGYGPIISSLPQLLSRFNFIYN
UniProt Q91Z31: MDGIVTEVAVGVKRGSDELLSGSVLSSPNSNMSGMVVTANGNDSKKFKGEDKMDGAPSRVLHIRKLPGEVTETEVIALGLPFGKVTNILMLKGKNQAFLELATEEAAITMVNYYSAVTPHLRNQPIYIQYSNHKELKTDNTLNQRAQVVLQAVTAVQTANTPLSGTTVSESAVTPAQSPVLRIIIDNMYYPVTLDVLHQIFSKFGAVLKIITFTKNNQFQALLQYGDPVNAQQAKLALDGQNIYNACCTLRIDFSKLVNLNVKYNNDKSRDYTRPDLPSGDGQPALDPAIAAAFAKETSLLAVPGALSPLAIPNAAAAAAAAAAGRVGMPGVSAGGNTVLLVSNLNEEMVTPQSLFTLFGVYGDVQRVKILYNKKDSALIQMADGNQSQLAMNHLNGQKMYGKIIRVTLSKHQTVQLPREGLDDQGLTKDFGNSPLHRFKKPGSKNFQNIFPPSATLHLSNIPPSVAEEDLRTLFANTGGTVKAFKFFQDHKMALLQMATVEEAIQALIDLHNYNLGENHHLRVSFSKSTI
UniProt Q8BHD7: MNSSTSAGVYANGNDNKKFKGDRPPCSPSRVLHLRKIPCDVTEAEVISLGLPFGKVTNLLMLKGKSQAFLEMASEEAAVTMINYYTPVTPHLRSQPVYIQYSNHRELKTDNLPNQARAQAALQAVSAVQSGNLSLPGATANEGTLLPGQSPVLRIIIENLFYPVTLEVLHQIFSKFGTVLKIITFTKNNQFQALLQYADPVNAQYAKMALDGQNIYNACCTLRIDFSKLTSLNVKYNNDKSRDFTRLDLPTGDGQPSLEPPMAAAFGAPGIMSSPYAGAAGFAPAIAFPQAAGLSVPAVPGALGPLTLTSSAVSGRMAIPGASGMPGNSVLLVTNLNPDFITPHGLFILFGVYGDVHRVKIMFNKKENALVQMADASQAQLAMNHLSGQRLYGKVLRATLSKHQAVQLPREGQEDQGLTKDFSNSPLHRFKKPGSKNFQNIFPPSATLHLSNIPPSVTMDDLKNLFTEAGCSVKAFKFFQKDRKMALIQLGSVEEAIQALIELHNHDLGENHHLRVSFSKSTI
UniProt P97868: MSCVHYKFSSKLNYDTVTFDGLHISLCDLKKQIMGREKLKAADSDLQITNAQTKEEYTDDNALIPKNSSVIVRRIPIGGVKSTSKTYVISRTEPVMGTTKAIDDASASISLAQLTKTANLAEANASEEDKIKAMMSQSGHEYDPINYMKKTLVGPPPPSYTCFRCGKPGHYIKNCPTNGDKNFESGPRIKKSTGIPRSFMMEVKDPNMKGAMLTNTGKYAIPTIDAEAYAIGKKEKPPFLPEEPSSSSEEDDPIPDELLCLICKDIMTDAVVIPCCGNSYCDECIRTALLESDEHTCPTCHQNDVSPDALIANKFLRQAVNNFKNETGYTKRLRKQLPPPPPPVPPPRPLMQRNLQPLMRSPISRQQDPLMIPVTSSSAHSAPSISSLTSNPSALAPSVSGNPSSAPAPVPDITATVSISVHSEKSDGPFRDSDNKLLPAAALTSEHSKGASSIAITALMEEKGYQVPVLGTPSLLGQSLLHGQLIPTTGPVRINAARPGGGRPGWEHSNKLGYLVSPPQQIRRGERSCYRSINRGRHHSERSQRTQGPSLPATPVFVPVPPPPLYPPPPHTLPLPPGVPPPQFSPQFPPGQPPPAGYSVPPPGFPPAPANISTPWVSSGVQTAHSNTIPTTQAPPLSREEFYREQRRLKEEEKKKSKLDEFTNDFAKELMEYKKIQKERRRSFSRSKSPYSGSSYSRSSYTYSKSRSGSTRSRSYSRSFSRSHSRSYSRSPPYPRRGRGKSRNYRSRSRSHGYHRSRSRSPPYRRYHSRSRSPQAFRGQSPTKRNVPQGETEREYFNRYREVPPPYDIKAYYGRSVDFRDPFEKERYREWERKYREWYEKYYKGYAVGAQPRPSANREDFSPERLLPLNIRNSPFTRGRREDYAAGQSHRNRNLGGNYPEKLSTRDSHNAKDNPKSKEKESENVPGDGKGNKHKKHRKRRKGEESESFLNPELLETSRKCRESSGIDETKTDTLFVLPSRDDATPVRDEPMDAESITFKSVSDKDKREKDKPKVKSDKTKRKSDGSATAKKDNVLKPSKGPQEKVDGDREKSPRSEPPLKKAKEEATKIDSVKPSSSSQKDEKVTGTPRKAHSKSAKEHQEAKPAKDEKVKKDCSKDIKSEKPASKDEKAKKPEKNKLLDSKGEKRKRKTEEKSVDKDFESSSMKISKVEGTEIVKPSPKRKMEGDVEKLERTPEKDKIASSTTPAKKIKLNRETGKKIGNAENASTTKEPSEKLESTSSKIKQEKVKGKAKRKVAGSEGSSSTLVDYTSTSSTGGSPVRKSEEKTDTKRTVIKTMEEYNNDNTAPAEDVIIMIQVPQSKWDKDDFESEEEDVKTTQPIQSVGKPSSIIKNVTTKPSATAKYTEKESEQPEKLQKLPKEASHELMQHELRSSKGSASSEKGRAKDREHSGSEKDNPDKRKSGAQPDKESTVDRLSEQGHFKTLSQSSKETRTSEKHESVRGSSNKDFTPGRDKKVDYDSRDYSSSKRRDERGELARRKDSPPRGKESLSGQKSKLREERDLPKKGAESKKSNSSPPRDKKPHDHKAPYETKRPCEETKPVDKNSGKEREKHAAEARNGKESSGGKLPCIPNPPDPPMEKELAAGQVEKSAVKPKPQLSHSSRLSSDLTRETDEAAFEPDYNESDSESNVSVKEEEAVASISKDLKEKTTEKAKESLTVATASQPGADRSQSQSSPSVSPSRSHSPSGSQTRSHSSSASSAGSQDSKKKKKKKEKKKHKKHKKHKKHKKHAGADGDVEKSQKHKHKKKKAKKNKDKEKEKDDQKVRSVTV
UniProt Q921F2: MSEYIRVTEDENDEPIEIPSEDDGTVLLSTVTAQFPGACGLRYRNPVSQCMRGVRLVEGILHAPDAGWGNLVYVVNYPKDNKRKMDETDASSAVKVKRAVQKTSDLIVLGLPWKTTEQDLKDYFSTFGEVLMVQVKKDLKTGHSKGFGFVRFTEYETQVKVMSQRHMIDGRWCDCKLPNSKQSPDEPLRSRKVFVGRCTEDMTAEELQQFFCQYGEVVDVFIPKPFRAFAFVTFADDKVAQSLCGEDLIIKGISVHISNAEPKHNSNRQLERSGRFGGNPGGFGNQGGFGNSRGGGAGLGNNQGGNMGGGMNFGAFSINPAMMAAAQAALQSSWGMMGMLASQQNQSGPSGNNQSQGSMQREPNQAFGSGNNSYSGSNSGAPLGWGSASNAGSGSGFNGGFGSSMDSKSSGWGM
UniProt Q3UHC0: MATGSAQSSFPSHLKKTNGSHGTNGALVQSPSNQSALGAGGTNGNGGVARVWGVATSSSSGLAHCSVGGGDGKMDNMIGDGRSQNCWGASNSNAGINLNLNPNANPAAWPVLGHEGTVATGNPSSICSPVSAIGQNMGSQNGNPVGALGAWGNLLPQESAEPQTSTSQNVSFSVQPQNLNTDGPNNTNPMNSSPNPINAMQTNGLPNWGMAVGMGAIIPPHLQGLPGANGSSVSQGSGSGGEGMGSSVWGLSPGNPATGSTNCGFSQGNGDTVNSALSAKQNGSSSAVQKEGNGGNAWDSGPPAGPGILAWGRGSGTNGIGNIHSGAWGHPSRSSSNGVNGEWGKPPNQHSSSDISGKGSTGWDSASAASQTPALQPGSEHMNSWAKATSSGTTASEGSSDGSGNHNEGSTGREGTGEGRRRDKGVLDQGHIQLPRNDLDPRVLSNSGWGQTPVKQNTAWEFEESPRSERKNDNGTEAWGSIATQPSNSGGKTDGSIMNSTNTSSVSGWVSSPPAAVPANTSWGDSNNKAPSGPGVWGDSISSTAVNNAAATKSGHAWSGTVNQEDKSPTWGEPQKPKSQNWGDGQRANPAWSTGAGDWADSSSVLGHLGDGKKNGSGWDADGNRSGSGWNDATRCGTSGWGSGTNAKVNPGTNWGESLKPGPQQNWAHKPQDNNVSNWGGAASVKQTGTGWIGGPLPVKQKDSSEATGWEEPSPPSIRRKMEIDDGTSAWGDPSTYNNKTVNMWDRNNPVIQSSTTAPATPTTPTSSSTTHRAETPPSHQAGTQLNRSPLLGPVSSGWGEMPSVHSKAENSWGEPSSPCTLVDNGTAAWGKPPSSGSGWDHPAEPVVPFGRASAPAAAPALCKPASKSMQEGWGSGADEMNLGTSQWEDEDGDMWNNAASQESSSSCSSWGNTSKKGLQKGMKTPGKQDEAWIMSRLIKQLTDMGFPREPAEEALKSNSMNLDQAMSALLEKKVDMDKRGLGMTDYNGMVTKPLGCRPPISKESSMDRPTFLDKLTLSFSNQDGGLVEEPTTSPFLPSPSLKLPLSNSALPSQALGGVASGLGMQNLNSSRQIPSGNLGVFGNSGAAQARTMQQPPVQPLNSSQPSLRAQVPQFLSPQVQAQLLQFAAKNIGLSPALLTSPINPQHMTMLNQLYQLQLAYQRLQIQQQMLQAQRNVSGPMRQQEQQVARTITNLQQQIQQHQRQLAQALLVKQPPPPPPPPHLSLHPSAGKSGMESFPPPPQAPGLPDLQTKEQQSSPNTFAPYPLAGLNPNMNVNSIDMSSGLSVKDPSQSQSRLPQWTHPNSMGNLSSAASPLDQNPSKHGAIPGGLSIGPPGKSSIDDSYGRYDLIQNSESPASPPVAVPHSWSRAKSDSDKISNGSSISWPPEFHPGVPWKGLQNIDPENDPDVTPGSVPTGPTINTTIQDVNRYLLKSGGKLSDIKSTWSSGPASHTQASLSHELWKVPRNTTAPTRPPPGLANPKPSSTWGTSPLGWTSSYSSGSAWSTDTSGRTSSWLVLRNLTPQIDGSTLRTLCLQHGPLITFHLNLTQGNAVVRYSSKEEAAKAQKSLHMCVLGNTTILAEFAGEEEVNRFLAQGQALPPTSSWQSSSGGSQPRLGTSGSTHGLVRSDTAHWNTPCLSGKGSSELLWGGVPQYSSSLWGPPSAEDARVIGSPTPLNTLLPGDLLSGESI

No constants are given. Whether binding was seen depends on the method and setting. In cells and extracts the contact can be indirect. Here binding means that the protein was enriched with, or labelled near, the bait; the list need not be complete.

The target in the assay is Argonaute 2 (mouse (endogenous in NSC-34)) (UniProt Q8CJG0). The assay is described as follows: affinity purification with mass spectrometry.
As for ELAVL2 (from UniProt Q60899 1-360), the binding entry is reported as “binds”.

As for ELAVL4 (from UniProt Q61701 1-385), the binding entry is “binds”. The same measure for HNRNPA2B1 (from UniProt O88569 1-353): “binds”; for NUDT21 (from UniProt Q9CQF3 1-227): “binds”; for PTBP2 (from UniProt Q91Z31 1-531): “binds”. The same measure for PTBP3 (from UniProt Q8BHD7 1-523): “binds”; for RBBP6 (from UniProt P97868 1-1790): “binds”; for TDP-43 (from UniProt Q921F2 1-414): “binds”.

With TNRC6A (from UniProt Q3UHK8 1-1896), the binding entry is “binds”. TNRC6B (from UniProt Q8BKI2 1-1810): the binding result is reported as “binds”. For the substance TNRC6C (from UniProt Q3UHC0 1-1690), the binding entry is “binds”.
